PubChem BioAssay AID652259 – Drosophila RNAi Screening Center | 2013
Screen: 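Identify new Wingless signalling regulators in fly cells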 (primary screen). Cells: Drosophila clone 8 imaginal disc epithelial cells. Reagents: long dsRNA against Drosophila genes. Conditions: pathway stimulated by co-transfected Wingless expression plasmid. Measurement: 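Dual luciferase reads per well after Wingless plasmid stimulation: reporter firefly light and Renilla control light; activity is firefly divided by Renilla, a ratio not deposited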. Scale: firefly reporter light: higher = more Wg reporter light, before normalisation; Renilla control light: higher = more transfected or surviving cells. Hit rule: 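a knock-down is a candidate when at least two out of four statistical tests show it departing from its plate mean; one test alone signals a weak candidate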. Meaning of the calls: active = candidate regulator (raises or lowers reporter); inactive = not a candidate.
The screen tested about 22,000 reagents; shown is an unselected part of those with a known target gene and a result. Of all reagents, 233 (1.1%) got an active call. 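Light values are raw, unnormalised plate reads; the ratio scores behind the reporter calls were not deposited.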 A number with no mark means an inactive call. A plus sign joins genes that one reagent is predicted to hit. Reagent sequences are not shown. The record does not give: the amount of reagent, the time to read-out, the dose of the treatment.

CG11700 [DRSC17794] | firefly reporter light, replicate 1 = 5509; Renilla control light, replicate 1 = 2101
dve (defective proventriculus) [DRSC04680] | firefly reporter light, replicate 1 = 2692; firefly reporter light, replicate 2 = 9448; Renilla control light, replicate 1 = 726; Renilla control light, replicate 2 = 3689
nudE [DRSC09000] | firefly reporter light, replicate 1 = 6282; Renilla control light, replicate 1 = 2402
nudE [DRSC10962] | firefly reporter light, replicate 1 = 6571; Renilla control light, replicate 1 = 3936
HDAC4 (Histone deacetylase 4) [DRSC19780] | firefly reporter light, replicate 1 = 24812; Renilla control light, replicate 1 = 12104
CG10336 [DRSC02037] | firefly reporter light, replicate 1 = 5667; Renilla control light, replicate 1 = 2145
jef (jet fuel) [DRSC06198] | firefly reporter light, replicate 1 = 8920; Renilla control light, replicate 1 = 3905
CG42531 [DRSC05318] | firefly reporter light, replicate 1 = 19821; Renilla control light, replicate 1 = 20083
pns (pinstripe) [DRSC08598] | firefly reporter light, replicate 1 = 4880; Renilla control light, replicate 1 = 2711
VGAT (Vesicular GABA Transporter) [DRSC07160] | firefly reporter light, replicate 1 = 7675; Renilla control light, replicate 1 = 2944
Sam-S (S-adenosylmethionine Synthetase) [DRSC00758] | firefly reporter light, replicate 1 = 8709; Renilla control light, replicate 1 = 2619
Lkr (Leucokinin receptor) [DRSC09754] | firefly reporter light, replicate 1 = 1088; firefly reporter light, replicate 2 = 4305; Renilla control light, replicate 1 = 1161; Renilla control light, replicate 2 = 3488
CG34334 [DRSC20643] | firefly reporter light, replicate 1 = 17930; Renilla control light, replicate 1 = 8710
sinu (sinuous) [DRSC09752] | firefly reporter light, replicate 1 = 4921; Renilla control light, replicate 1 = 1498
Pglym87 (Phosphoglyceromutase 87) [DRSC15252] | firefly reporter light, replicate 1 = 8700; Renilla control light, replicate 1 = 3308
CG18081 [DRSC10294] | firefly reporter light, replicate 1 = 5664; Renilla control light, replicate 1 = 2874
CG3626 [DRSC18318] | firefly reporter light, replicate 1 = 21381; Renilla control light, replicate 1 = 9776
Nf1 (Neurofibromin 1) [DRSC16758] | firefly reporter light, replicate 1 = 1201; firefly reporter light, replicate 2 = 5165; Renilla control light, replicate 1 = 528; Renilla control light, replicate 2 = 2148
CG31910 + snoRNA:Me28S-G2743 (retired record) [DRSC00946] | firefly reporter light, replicate 1 = 14464; Renilla control light, replicate 1 = 7365
Rbm13 (RNA-binding motif protein 13) [DRSC17749] | firefly reporter light, replicate 1 = 20160; Renilla control light, replicate 1 = 13232
CG7565 [DRSC10881] | firefly reporter light, replicate 1 = 3728; Renilla control light, replicate 1 = 1414
CG18635 [DRSC06780] | firefly reporter light, replicate 1 = 4005; Renilla control light, replicate 1 = 1079
CG13258 [DRSC02244] | firefly reporter light, replicate 1 = 3552; firefly reporter light, replicate 2 = 4857; Renilla control light, replicate 1 = 1329; Renilla control light, replicate 2 = 2326
Cyp317a1 (Cytochrome P450 317a1) [DRSC07366] | firefly reporter light, replicate 1 = 4733; Renilla control light, replicate 1 = 1952
CG5013 [DRSC15695] | firefly reporter light, replicate 1 = 18304; Renilla control light, replicate 1 = 3809
